{"sequences": {"note": "The chains behind the UniProt entries cited, without tags or fusion partners. Where a name states a change or a piece, a line headed by the entry shows the natural chain unless it says otherwise.", "UniProt P08482": "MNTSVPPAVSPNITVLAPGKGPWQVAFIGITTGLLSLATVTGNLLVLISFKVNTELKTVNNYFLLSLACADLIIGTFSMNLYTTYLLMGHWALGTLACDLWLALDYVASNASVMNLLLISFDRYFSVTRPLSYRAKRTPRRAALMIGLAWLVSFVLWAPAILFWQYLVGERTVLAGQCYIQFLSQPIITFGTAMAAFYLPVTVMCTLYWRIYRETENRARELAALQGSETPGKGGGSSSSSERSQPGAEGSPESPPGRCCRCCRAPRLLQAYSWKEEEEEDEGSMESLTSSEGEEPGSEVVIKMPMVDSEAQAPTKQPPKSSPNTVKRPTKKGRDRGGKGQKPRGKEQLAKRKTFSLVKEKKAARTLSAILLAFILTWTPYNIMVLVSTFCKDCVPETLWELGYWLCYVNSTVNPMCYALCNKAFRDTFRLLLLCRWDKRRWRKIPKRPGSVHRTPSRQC"}, "source": "PubChem BioAssay AID1488", "about": "(Vanderbilt High Throughput Screening Facility, 2009)", "note": "Screen size: about 1,700 compounds; about 310 (18%) were called active. This list was built around the results that the source calls inconclusive (neither active nor inactive); the mix of calls is not that of the screen.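 The calls were made as follows: active = fluorescence change differs from the solvent-only DMSO control mean at a set confidence level in both duplicate runs; inconclusive = differs from solvent-only control mean in just one of two runs; inactive = the rest.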", "data": [{"target": "Muscarinic acetylcholine receptor M1 (Rattus norvegicus) (UniProt P08482)", "experiment": "rat M1 muscarinic receptor agonists, confirmation, CHO-M1 cells, Fluo-4 calcium, duplicate retest (AID 1488);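 also: an EC20 dose of acetylcholine follows compound addition during the same imaging run; raw fluorescence intensity difference in instrument units with no normalization to controls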", "details": "Fluo-4 calcium fluorescence, agonist mode, at 10 µM, actives lie on both sides", "values": [{"smiles": "O=C(c1ccccc1)N(Cc1ccc2c(c1)OCO2)Cc1nc2ccccc2c(=O)[nH]1", "fluorescence change (max-min)": "inconclusive: -21.5"}, {"smiles": "COc1cc(NC(=O)c2ccccc2)c(OC)cc1NC(=O)CN1CCN(c2ccccn2)CC1", "fluorescence change (max-min)": "inactive: -8.22"}, {"smiles": "CCn1c(=O)cc(SCC(=O)N2CCN(c3ccccc3OC)CC2)c2ccccc21", "fluorescence change (max-min)": "inconclusive: -10.6"}, {"smiles": "O=C(C1CC1(c1ccccc1)c1ccccc1)N1CCOCC1", "note": "(stereo not drawn)", "fluorescence change (max-min)": "inactive: -16.3"}, {"smiles": "CC(=O)OC(C)C[N+](C)(C)C", "note": "(stereo not drawn)", "fluorescence change (max-min)": "active: 529"}, {"smiles": "CCCCc1nc(N2CCOCC2)c(C#N)c2c1COC(C)(C)C2", "fluorescence change (max-min)": "inconclusive: -36.4"}, {"smiles": "COc1cccc(C2C=C(c3ccc(Br)s3)Nc3ncnn32)c1OC", "note": "(stereo not drawn)", "fluorescence change (max-min)": "active: 170"}, {"smiles": "CCc1nc(NCc2ccccn2)c2oc3ccccc3c2n1", "fluorescence change (max-min)": "active: -23.7"}, {"smiles": "COC(=O)c1cc(OC)c(OC)cc1NC(=O)C1CCC(=O)N1S(=O)(=O)c1ccc(C)cc1", "note": "(stereo not drawn)", "fluorescence change (max-min)": "inconclusive: -13.9"}, {"smiles": "Cc1ccc(/C(C#N)=C\\c2cn(C)c3ccccc23)cc1", "fluorescence change (max-min)": "inactive: -11.2"}, {"smiles": "O=C(Nc1ccc2c(c1)OCO2)N1CCN(c2cccc(C(F)(F)F)c2)CC1", "fluorescence change (max-min)": "inconclusive: -22.9"}, {"smiles": "CC(=O)Nc1nc2n(n1)C(c1ccccc1)C=C(c1ccccc1)N2", "note": "(stereo not drawn)", "fluorescence change (max-min)": "active: 132"}, {"smiles": "Cc1ccc(C)c2[nH]c(=O)c(CCNC(=O)c3cc4ccccc4o3)cc12", "fluorescence change (max-min)": "inconclusive: -16.8"}, {"smiles": "Cc1ccc2c(c1)nnn2C1CCN(S(=O)(=O)c2cccc(S(=O)(=O)N(C)C)c2)CC1", "fluorescence change (max-min)": "inconclusive: -15.3"}, {"smiles": "CCN(C1CCCCC1)S(=O)(=O)c1ccc(S(=O)(=O)NCc2ccncc2)cc1", "fluorescence change (max-min)": "inactive: 11"}, {"smiles": "Cc1cccc(NC(=O)c2sc3nc(-c4ccccc4)cn3c2C)n1", "fluorescence change (max-min)": "inconclusive: -16.2"}, {"smiles": "O=C(Cn1nnc(-c2ccccc2)n1)OCc1csc(-c2ccccc2)n1", "fluorescence change (max-min)": "inactive: -26.8"}, {"smiles": "Cc1onc(-c2ccccc2Cl)c1C(=O)Nc1ccc(-c2cn3cccnc3n2)cc1", "fluorescence change (max-min)": "inactive: -7.27"}, {"smiles": "Cc1oc2nc(SCCCC(=O)NCCCO)nc(N)c2c1C", "fluorescence change (max-min)": "inconclusive: -20.8"}, {"smiles": "CN(C)c1ccc(N/C=C/C(=O)c2ccccc2)cc1", "fluorescence change (max-min)": "inconclusive: -17"}, {"smiles": "Clc1ccc(C(c2nnnn2C2CCCC2)N2CCSCC2)cc1", "note": "(stereo not drawn)", "fluorescence change (max-min)": "inactive: -18.7"}, {"smiles": "Cc1cc(C)c2cc(C#N)c(SCC(=O)NCC3CCCO3)nc2c1", "note": "(stereo not drawn)", "fluorescence change (max-min)": "inconclusive: -40.1"}, {"smiles": "Cc1c(OC(=O)CNC(=O)OC(C)(C)C)ccc2c3c(c(=O)oc12)CCC3", "fluorescence change (max-min)": "inactive: 0.275"}, {"smiles": "COc1ccc(-c2cc(C(F)(F)F)n3ncc(C(=O)NCC4CCCO4)c3n2)cc1OC", "note": "(stereo not drawn)", "fluorescence change (max-min)": "inconclusive: 40.5"}, {"smiles": "Cc1[nH]c2ccc(-c3nnc(SCC(=O)N4CCCc5ccccc54)o3)cc2c1C", "fluorescence change (max-min)": "inconclusive: -38.1"}, {"smiles": "COc1ccccc1N1CCN(C(=O)CCNS(=O)(=O)c2ccc(Br)s2)CC1", "fluorescence change (max-min)": "inconclusive: -27.5"}, {"smiles": "COc1ccc(OC)c(/C=c2\\sc3nc(-c4cccs4)nn3c2=O)c1", "fluorescence change (max-min)": "active: 478"}, {"smiles": "COc1ccccc1CCn1cnc2c3cc(C)ccc3n(C)c2c1=O", "fluorescence change (max-min)": "inconclusive: -19.3"}, {"smiles": "CC(=O)c1c(C)[nH]c(C(=O)OCc2nnc(-c3ccccc3)o2)c1C", "fluorescence change (max-min)": "inconclusive: -15.5"}, {"smiles": "N#Cc1nc(COc2ccc(F)cc2)oc1N1CCC(Cc2ccccc2)CC1", "fluorescence change (max-min)": "inactive: 15.5"}, {"smiles": "COc1ccccc1N1CCN(C(=O)CSc2ncccc2-c2nc3ccccc3[nH]2)CC1", "fluorescence change (max-min)": "inconclusive: -25.8"}, {"smiles": "CCC(=O)N1CCN(c2ccccc2NC(=O)COc2ccccc2Cl)CC1", "fluorescence change (max-min)": "inconclusive: -19.6"}, {"smiles": "CCS(=O)(=O)NCC(c1cccnc1)N1CCN(c2ccc(F)cc2)CC1", "note": "(stereo not drawn)", "fluorescence change (max-min)": "inactive: -10.8"}, {"smiles": "COC(=O)COc1cc(C)cc2oc(=O)c(CC(=O)OC)c(C)c12", "fluorescence change (max-min)": "inconclusive: -24.3"}, {"smiles": "O=C(Nc1ccccc1)NC1(C(=O)NCCCN2CCOCC2)CCCCC1", "fluorescence change (max-min)": "inconclusive: -17.2"}, {"smiles": "CCOc1ccc2noc3c2c1C(=O)c1ccccc1-3", "fluorescence change (max-min)": "active: 3220"}, {"smiles": "O=C(CNc1ccc(Oc2ccccc2)cc1)N1CCOCC1", "fluorescence change (max-min)": "inconclusive: -27.4"}, {"smiles": "CCn1c(SCC(=O)c2cc(C)n(CC3CCCO3)c2C)nc2ccccc21", "note": "(stereo not drawn)", "fluorescence change (max-min)": "inconclusive: -14.5"}, {"smiles": "O=C(C1CCN(S(=O)(=O)c2cccc3nsnc23)CC1)N1CC=C(c2ccccc2)CC1", "fluorescence change (max-min)": "inactive: -9.85"}, {"smiles": "CCOC(=O)c1c(C)oc2c1c(C(c1ccncc1)N1CCOCC1)c(O)c1ccccc12", "note": "(stereo not drawn)", "fluorescence change (max-min)": "inconclusive: -25.3"}, {"smiles": "CCNc1cccc2c1C(=O)N(C)C2=O", "fluorescence change (max-min)": "active: 928"}, {"smiles": "O=C1C2=C(Nc3ccccc3SC2c2ccco2)c2ccccc21", "note": "(stereo not drawn)", "fluorescence change (max-min)": "inconclusive: -16.9"}, {"smiles": "Cc1cccc(N2CCN(C(=O)C3CCN(S(=O)(=O)c4cccc5nsnc45)CC3)CC2C)c1", "note": "(stereo not drawn)", "fluorescence change (max-min)": "active: -32.8"}, {"smiles": "CCn1c(N2CCC(Cc3ccccc3)CC2)nc2c1c(=O)[nH]c(=O)n2C", "fluorescence change (max-min)": "inconclusive: -20.7"}, {"smiles": "O=C(CSc1nc2ccccc2c(=O)n1Cc1ccco1)N1CCCCCC1", "fluorescence change (max-min)": "inconclusive: -23.9"}, {"smiles": "COCCNC(=O)c1c(N)n(CCC2=CCCCC2)c2nc3ccccc3nc12", "fluorescence change (max-min)": "inactive: 5.8"}, {"smiles": "CCCN(S(=O)(=O)c1ccc(OCC)cc1)S(=O)(=O)c1cccs1", "fluorescence change (max-min)": "inconclusive: -12.2"}, {"smiles": "C=CCn1cnc2c(c1=O)c1nc3ccccc3nc1n2/N=C/c1cc(OC)c(OC)c(OC)c1", "fluorescence change (max-min)": "active: -32.7"}, {"smiles": "O=C(Nc1nnc(CCN2CCCCC2)s1)C1CCCCC1", "fluorescence change (max-min)": "inconclusive: -24.3"}, {"smiles": "N#Cc1cccc(NC(=O)c2nc(-c3ccccc3)n(-c3ccccc3)n2)c1", "fluorescence change (max-min)": "inactive: -11.1"}, {"smiles": "Cc1cccc2cc(CN(Cc3ccc(F)cc3)C(=O)N(C)C)c3nnnn3c12", "fluorescence change (max-min)": "inconclusive: -25.1"}, {"smiles": "CN(C)S(=O)(=O)c1cccc(C(=O)OCC(=O)Nc2sccc2C(N)=O)c1", "fluorescence change (max-min)": "inconclusive: -17.4"}, {"smiles": "CCOC(=O)C1CCN(c2nc3ccccc3nc2C(C#N)C(=O)OC(C)C)CC1", "note": "(stereo not drawn)", "fluorescence change (max-min)": "inactive: 6.42"}, {"smiles": "CCOP(=O)(c1ccc(N(C)C)cc1)C(O)c1c(Cl)cccc1Cl", "note": "(stereo not drawn)", "fluorescence change (max-min)": "inconclusive: -21.6"}, {"smiles": "Cc1cc2c(c(=O)o1)C1(C(=O)N(CC(=O)O)c3ccccc31)C(C#N)=C(N)O2", "note": "(stereo not drawn)", "fluorescence change (max-min)": "active: 59.9"}, {"smiles": "COc1ccc(N(C)S(=O)(=O)c2cccc3cccnc23)c(OC)c1", "fluorescence change (max-min)": "inconclusive: -19.8"}, {"smiles": "c1ccc(Cn2c(-c3ccco3)nc3nc4ccccc4nc32)cc1", "fluorescence change (max-min)": "inconclusive: -29.4"}, {"smiles": "COc1ccc(C(=O)N2CCN(c3ccc(C)c(C)c3)CC2)cc1OC", "fluorescence change (max-min)": "inconclusive: -18"}, {"smiles": "COc1ccc2c(c1OC)C(=O)N1c3ccccc3C(=O)N(c3ccc(F)cc3)C21", "note": "(stereo not drawn)", "fluorescence change (max-min)": "inactive: -13"}, {"smiles": "COc1ccc(NC(C)=O)cc1NC(=O)CN1CCN(CC(=O)Nc2ccccc2Cl)CC1", "fluorescence change (max-min)": "inconclusive: -29.1"}, {"smiles": "COc1ccc(-c2csc(N(CCCN3CCOCC3)C(=O)c3ccco3)n2)cc1", "fluorescence change (max-min)": "inactive: -1.49"}, {"smiles": "O=C(Cc1nc2ccccc2s1)c1ccc(O)cc1O", "fluorescence change (max-min)": "inactive: 4.5"}, {"smiles": "NC(=O)c1ccsc1NC(=O)c1ccc(S(=O)(=O)N2CCCCC2)cc1", "fluorescence change (max-min)": "inconclusive: -31.8"}, {"smiles": "O=C(OCC#CCSc1nnc(-c2cccc3ccccc23)o1)c1cccs1", "fluorescence change (max-min)": "inconclusive: 56"}, {"smiles": "COc1ccccc1NC(=O)CC1C(=O)NCCN1C(=O)Nc1ccc(Cl)c(Cl)c1", "note": "(stereo not drawn)", "fluorescence change (max-min)": "inconclusive: -20.9"}, {"smiles": "Cn1nc(-c2ccc(OCC(=O)Nc3cccnc3)cc2)c2ccccc2c1=O", "fluorescence change (max-min)": "inconclusive: -16.9"}, {"smiles": "O=C(CSc1nnc(C2COc3ccccc3O2)o1)N1CCCc2ccccc21", "note": "(stereo not drawn)", "fluorescence change (max-min)": "inconclusive: -15.7"}, {"smiles": "CCO/C(C)=N/n1c2nc3ccccc3nc2c2c(=O)n(C3CCCC3)c(C)nc21", "fluorescence change (max-min)": "inconclusive: -22.9"}, {"smiles": "O=C(CSc1nc2ccccc2o1)N1CCN(c2ccc(Cl)cc2)CC1", "fluorescence change (max-min)": "active: -34.5"}, {"smiles": "COc1ccc(CNC(=O)C(C#N)c2nc3ccccc3nc2N2CCCC2)cc1", "note": "(stereo not drawn)", "fluorescence change (max-min)": "active: 373"}, {"smiles": "O=C(Nc1ccccc1)N1CC=C(c2ccc(F)cc2)CC1", "fluorescence change (max-min)": "inconclusive: -36"}, {"smiles": "COc1ccc(CCN(Cc2cccs2)S(=O)(=O)c2ccc(-n3cnnn3)cc2)cc1OC", "fluorescence change (max-min)": "inconclusive: -18.6"}, {"smiles": "O=C(NCc1ccccc1)N(Cc1nc2ccccc2c(=O)[nH]1)C1CCCC1", "fluorescence change (max-min)": "inactive: -11.9"}, {"smiles": "Cc1ccc2nc(SCC(=O)Nc3c(C)n(C)n(-c4ccccc4)c3=O)[nH]c2c1", "fluorescence change (max-min)": "inactive: -7.1"}, {"smiles": "CCOC(=O)N1C(=O)c2cc(OC)ccc2S1(=O)=O", "fluorescence change (max-min)": "inconclusive: -22.2"}, {"smiles": "COC(=O)c1cccc(NC(=O)CSc2nnc(COc3ccc(C#N)cc3)n2-c2ccccc2)c1", "fluorescence change (max-min)": "inconclusive: -21.6"}, {"smiles": "CC(=O)c1cccc(NC(=O)C2CCCN(S(=O)(=O)c3cccc4cccnc34)C2)c1", "note": "(stereo not drawn)", "fluorescence change (max-min)": "active: -26.1"}, {"smiles": "Cc1cc(C)n(-c2nc(NCC3CCCO3)c3c4c(sc3n2)COC(C)(C)C4)n1", "note": "(stereo not drawn)", "fluorescence change (max-min)": "inactive: -18"}, {"smiles": "O=C1c2ccccc2N2C(=O)c3ccccc3C2N1Cc1ccco1", "note": "(stereo not drawn)", "fluorescence change (max-min)": "inactive: 0.653"}, {"smiles": "CCn1cc(C(=O)Nc2ccc3c(c2)OCCO3)c2cc(OC)c(OC)cc2c1=O", "fluorescence change (max-min)": "inconclusive: -16.8"}, {"smiles": "COc1ccc(OC)c(Nc2cc(C(=O)NCCCN3CCOCC3)c3ccccc3n2)c1", "fluorescence change (max-min)": "active: -26.4"}, {"smiles": "COC(=O)C(C)n1cnc2c(cnn2-c2ccc(Cl)cc2)c1=O", "note": "(stereo not drawn)", "fluorescence change (max-min)": "inactive: -5.04"}, {"smiles": "O=C(c1cnc(N2CCN(c3ncccn3)CC2)c2ccccc12)N1CCN(c2ccccn2)CC1", "fluorescence change (max-min)": "inactive: -10.3"}, {"smiles": "CCCCN(CCCC)c1nc2ccccc2nc1C(C#N)C(=O)NCCCOC", "note": "(stereo not drawn)", "fluorescence change (max-min)": "active: 2700"}, {"smiles": "Cc1csc(SCCn2c(N3CCN(c4ccccc4)CC3)nc3c2c(=O)[nH]c(=O)n3C)n1", "fluorescence change (max-min)": "inconclusive: -19.6"}, {"smiles": "O=C(Nc1cccnc1)C1CC(c2ccc(Cl)c(Cl)c2)=NO1", "note": "(stereo not drawn)", "fluorescence change (max-min)": "inactive: -10.4"}, {"smiles": "COc1cccc(NC(=O)C2CCCN(S(=O)(=O)c3cccc4cccnc34)C2)c1", "note": "(stereo not drawn)", "fluorescence change (max-min)": "inconclusive: -41.2"}, {"smiles": "O=c1c2ccccc2nc2n1CCN2Cc1ccc(Cl)cc1", "fluorescence change (max-min)": "inconclusive: -14.9"}]}]}
